In patent publication US7244724B2, “Pyrrolobenzodiazepines” (United States of America, Represented by the Secretary, …, priority 2003, dated 2007):
Structures can show the parent of a compound that is named as a salt. Some entries share one result that the patent states for a list of compounds. At least one structure is not confirmed: it was looked up by name or label, or the drawing left a doubt.

What was measured:
linearized puc18 DNA = test: DNA cross-linking (agarose gel electrophoresis); format: biochemical; conditions: after 2 hours, 37° C., pH 7.2 TEOA buffer
[1] = test system: K562 human chronic myeloid leukaemia cells; test: K562 assay (MTT cytotoxicity); format: cell-based; conditions: 4 days incubation, n=2
Experimental: An initial stock of compound (in 0.006% DMSO) was used to generate a 1:3 dilution series ranging from 600 nM to 30 pM be the sequential addition of 40 μL compound to 80 μL of solvent (0.006% DMSO in sterile H2O). 10 μL of each point of the dilution range was transferred to a 96 well assay plate (Nunc, Cat. No. 163320) to generate four replica points per compound concentration. K562 human chronic myeloid leukaemia cells were maintained in RPM1 1640 medium supplemented with 10% foetal calf serum and 2 mM glutamine at 37° C. in a humidified atmosphere containing 5% CO2. 190 μL of a 5×10^4 cell solution was added to each well of the assay plate using a Matrix Wellmate (Apogent Discoveries), resulting in a total of 9.5×10^3 cells/well. Working compound concentrations therefore ranged from 30 nM to 1.5 pM. Plates were then kept in the dark at 37° C. in a humidified atmosphere containing 5% CO2. The assay is based on the ability of viable cells to reduce a yellow soluble tetrazolium salt, 3-(4,5-dimethylthiazol-2-yl)-2,5-diphenyl-2H-tetrazolium bromide (MTT, Aldrich-Sigma), to an insoluble purple formazan precipitate. […] The optical density was then read at a wavelength of 540 nm on a Fusion plate reader (Perkin Elmer). […]

| SMILES | XL50 (amount required to cross-link 50% of the DNA) (linearized puc18 DNA) | IC50 [1] [nM] |
| --- | --- | --- |
| C=C1C[C@H]2C=Nc3cc(OCCCOc4cc5c(cc4OC)C(=O)N4CC(=C)C[C@H]4C=N5)c(OC)cc3C(=O)N2C1 [SJG-136, reference compound] | less than 500 nM |  |
| C=C1C[C@H]2C(S(=O)(=O)[O-])Nc3cc(OCCCOc4cc5c(cc4OC)C(=O)N4CC(=C)C[C@H]4C(S(=O)(=O)[O-])N5)c(OC)cc3C(=O)N2C1.[Na+].[Na+] (stereo partly drawn) [SJG-720, 1,1′[[(Propane-1,3-diyl)dioxy]bis(11aS)-11-sulpho-7-methoxy-2-methylidene-1,2,3,10,11,11a-hexahydro-5H-pyrrolo[2,1-c][1,4-benzodiazepin-5-one]] sodium salt] | less than 500 nM | < 10 |
| C=C1C[C@H]2C(S(=O)(=O)O)Nc3cc(OCCCCCOc4cc5c(cc4OC)C(=O)N4CC(=C)C[C@H]4C(S(=O)(=O)O)N5)c(OC)cc3C(=O)N2C1 (stereo partly drawn) [SJG-738, 1,1′[[(Pentane-1,3-diyl)dioxy]bis(11aS)-11-sulpho-7-methoxy-2-methylidene-1,2,3,10,11,11a-hexahydro-5H-pyrrolo[2,1-c][1,4-benzodiazepin-5-one]] sodium salt] |  | < 10 |
